Laboratory results taken from patent US12280047B2, “Treatment of aneurysms” (Georgia State Research Foundation, Inc., priority 2017, dated 2025).

Chains of the proteins cited; added tags and fusions are not shown. Lines headed by an entry give the natural chain unless they say otherwise; changes in a name come on top.
UniProt P01019: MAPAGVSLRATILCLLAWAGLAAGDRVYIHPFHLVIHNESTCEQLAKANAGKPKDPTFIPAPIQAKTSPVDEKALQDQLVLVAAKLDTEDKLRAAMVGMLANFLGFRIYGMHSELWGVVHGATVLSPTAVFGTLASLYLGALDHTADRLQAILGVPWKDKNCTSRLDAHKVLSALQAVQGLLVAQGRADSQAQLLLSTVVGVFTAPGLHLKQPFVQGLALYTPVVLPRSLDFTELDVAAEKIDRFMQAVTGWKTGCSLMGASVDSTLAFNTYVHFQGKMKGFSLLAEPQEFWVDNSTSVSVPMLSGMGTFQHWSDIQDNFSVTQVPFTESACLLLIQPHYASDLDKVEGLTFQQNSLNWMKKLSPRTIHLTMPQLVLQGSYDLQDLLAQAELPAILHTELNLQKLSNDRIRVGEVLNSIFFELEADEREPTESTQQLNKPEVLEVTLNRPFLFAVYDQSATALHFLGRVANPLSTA

Experiments:
[1] = test system: ApoE−/− and ApoE−/−/IDO−/− mice; assay: Serum lipid and glucose level in AngII-infused mice; type: in vivo; details: 4 weeks, mean ± s.e.m.; for Cholesterol / Triglyceride: serum
[2] = test system: ApoE−/− and ApoE−/−/IDO−/− mice; assay: Serum lipid and glucose level in 3-HAA-injected mice; type: in vivo; details: 3-HAA 200 mg/kg/d i.p., 6 weeks, mean ± s.e.m.; for Cholesterol / Triglyceride: serum

Compound	BG ([1]; Apoe−/− mice) [mg/dll]	BG ([1]; Apoe−/−/IDO−/− mice) [mg/dll]	Cholesterol ([1]; Apoe−/− mice) [mg/dL]	Triglyceride ([1]; Apoe−/− mice) [mg/dL]	Cholesterol ([1]; Apoe−/−/IDO−/− mice) [mg/dL]	Triglyceride ([1]; Apoe−/−/IDO−/− mice)	BG ([2]; Apoe−/− mice) [mg/dL]	BG ([2]; Apoe−/−/IDO−/− mice) [mg/dL]	Cholesterol ([2]; Apoe−/− mice) [mg/dL]	Triglyceride ([2]; Apoe−/− mice) [mg/dL]	Cholesterol ([2]; Apoe−/−/IDO−/− mice) [mg/dL]	Triglyceride ([2]; Apoe−/−/IDO−/− mice) [mg/dL]
Angiotensin II (DRVYIHPF; Angiotensin-2; UniProt P01019 25-32, looked up) [AngII, Angiotensin II (Sigma, A9525) infused to induce AAA in mice]	151 ± 27	142 ± 19	496.1 ± 22.0	125 ± 12.6	497.9 ± 24.2	108.3 ± 19^ mg/dl	–	–	–	–	–	–
Nc1c(O)cccc1C(=O)O [3-HAA, 3-Hydroxyanthranilic acid]	–	–	–	–	–	–	137 ± 24	132 ± 29	471 ± 26.6	131.5 ± 5.5	470.8 ± 30.8	123.4 ± 10.1
